PubChem BioAssay AID1259327 | Drosophila RNAi Screening Center – 2017
Here is one part, drawn at random, of about 3,100 deposited reagents. Of all reagents, 378 (12%) are marked active. 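Hits include both directions; z-score sign shows ATP rise or fall; raw luminescence values are not plate-normalised.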 Entries without a mark were called inactive. A plus sign joins genes that one reagent is predicted to hit. Not stated in the record: the amount of reagent.

- Screen: 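Data from controls in screens of zinc and manganese toxicity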
- System: Drosophila S2R+ cells
- Knock-down reagent: long dsRNA against Drosophila genes
- Timing: 5 days (water added on day 4, read one day later)
- Challenge: water added as vehicle, no metal, one day before read-out
- Measurement: 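Luciferase ATP signal per well, normalised to plate mean, duplicate average converted to z-score across plates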
- Reading the numbers: ATP z-score: higher = more total ATP than typical wells; ATP luminescence: higher = more total ATP
- Hit rule: 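Called active when the ATP z-score exceeds 1.5 or falls below -1.5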
- Meaning of the calls: active = hit: ATP up or down; inactive = no clear ATP change

Target gene	amplicon	ATP z-score, duplicate mean	ATP luminescence, replicate 1 (RLU)	ATP luminescence, replicate 2 (RLU)
mbo	DRSC16123	-0.751	6.65e5	5.92e5
mbo	DRSC39478	0.383	5.34e5	4.26e5
CG12209	DRSC06119	-1.59 (active)	4.86e5	4.66e5
CG1724	DRSC20548	-0.96	6.33e5	6.44e5
CG1724	DRSC25668	-0.0225	8.46e5	7.96e5
dsb	DRSC08542	2.61 (active)	8.08e5	9.05e5
ppk11	DRSC02737	-0.255	6.97e5	7.01e5
Drip	DRSC07405	-1.57 (active)	4.96e5	4.60e5
Osi20	DRSC12568	-0.688	8.34e5	7.78e5
Osi20	DRSC28630	-0.487	7.98e5	7.33e5
asRNA:CR30267 + CG42260	DRSC29385	0.0257	8.99e5	7.59e5
Tsp39D	DRSC03099	0.081	7.95e5	6.76e5
ClC-a	DRSC14947	-0.405	3.11e5	6.40e5
ClC-a	DRSC14948	0.838	2.88e5	9.76e5
ClC-a	DRSC16142	0.677	7.87e5	7.64e5
CG32305	DRSC08614	0.0754	5.73e5	6.80e5
CG32305	DRSC29854	0.145	7.15e5	4.67e5
Sr-CII	DRSC07557	0.397	7.00e5	6.11e5
Sr-CII	DRSC25606	-0.201	8.09e5	8.42e5
CG33635	DRSC00006	-0.141	7.30e5	7.24e5
blot	DRSC11328	-0.424	6.97e5	6.74e5
blot	DRSC26157	0.713	9.40e5	9.38e5
Fas2	DRSC17308	0.0503	7.40e5	7.57e5
Fas2	DRSC17309	-1.27	5.16e5	4.93e5
Fas2	DRSC18664	0.541	7.75e5	7.48e5
Tmhs	DRSC08231	0.723	8.87e5	7.27e5
CG32579	DRSC19872	0.399	6.80e5	7.73e5
CG32579	DRSC39617	-0.964	3.56e5	4.45e5
CG42514	DRSC10428	0.232	7.41e5	7.71e5
Myd88	DRSC06815	0.767	8.83e5	7.41e5
Myd88	DRSC39905	1.95 (active)	5.99e5	9.21e5
kek1	DRSC03551	-0.0932	7.29e5	7.03e5
kek1	DRSC36699	-0.885	5.17e5	4.92e5
kek1	DRSC36700	-0.731	4.80e5	5.56e5
CG8389	DRSC22855	-0.289	6.03e5	5.07e5
CG8389	DRSC28233	-0.405	8.11e5	7.40e5
nAChRalpha2	DRSC17009	0.00163	7.26e5	6.86e5
nAChRalpha2	DRSC24487	-0.343	8.17e5	7.99e5
CG31100	DRSC14453	-0.161	2.91e5	7.46e5
CG31100	DRSC14455	-0.713	2.75e5	6.63e5
ZnT86D	DRSC16091	-0.513	2.91e5	6.68e5
stnA + stnB	DRSC20969	-0.179	7.26e5	6.89e5
stnA + stnB	DRSC21112	0.0145	7.46e5	7.42e5
stnA + stnB	DRSC21113	1.09	8.11e5	9.13e5
CG15880	DRSC00474	-0.616	6.72e5	6.13e5
CG15880	DRSC39795	-0.124	4.90e5	4.49e5
CG33303	DRSC02848	1.2	8.20e5	8.86e5
CG33303	DRSC39812	-0.656	4.44e5	4.21e5
CG11437	DRSC11659	0.425	9.79e5	9.25e5
Sec22	DRSC29297	-1.7 (active)	5.39e5	6.91e5
Sec22	DRSC39605	-0.847	3.88e5	4.28e5
CG31522	DRSC12005	-1.96 (active)	5.55e5	7.06e5
CG31522	DRSC29792	-0.762	4.55e5	5.76e5
CG3036	DRSC00562	-0.123	4.62e5	4.79e5
CG3036	DRSC24856	0.454	9.20e5	8.38e5
ZnT33D	DRSC02591	0.657	8.02e5	7.90e5
ZnT33D	DRSC39537	0.0962	4.31e5	4.86e5
cni	DRSC03512	0.487	7.85e5	7.71e5
dy	DRSC20325	-0.332	8.24e5	7.73e5
dy	DRSC25539	0.15	8.49e5	8.89e5
CG33090	DRSC01908	0.128	4.18e5	5.63e5
CG33090	DRSC27923	0.0875	9.77e5	1.09e6
Or46a + asRNA:CR43467	DRSC07490	-0.621	5.38e5	5.88e5
Or46a + asRNA:CR43467	DRSC21590	0.494	6.22e5	6.21e5
Or46a + asRNA:CR43467	DRSC29654	-0.192	8.47e5	7.57e5
Chs2	DRSC11830	-0.0773	9.33e5	8.40e5
Chs2	DRSC39425	-0.678	3.78e5	4.37e5
CG6749	DRSC10704	0.464	1.06e6	8.60e5
CG6749	DRSC39546	-0.732	4.22e5	3.87e5

Laid out differently: 10 of the entries above.
ClC-a [DRSC16142]
- ATP z-score, duplicate mean: 0.677
- ATP luminescence, replicate 1 (RLU): 7.87e5
- ATP luminescence, replicate 2 (RLU): 7.64e5

CG32305 [DRSC08614]
- ATP z-score, duplicate mean: 0.0754
- ATP luminescence, replicate 1 (RLU): 5.73e5
- ATP luminescence, replicate 2 (RLU): 6.80e5

CG32305 [DRSC29854]
- ATP z-score, duplicate mean: 0.145
- ATP luminescence, replicate 1 (RLU): 7.15e5
- ATP luminescence, replicate 2 (RLU): 4.67e5

Sr-CII [DRSC07557]
- ATP z-score, duplicate mean: 0.397
- ATP luminescence, replicate 1 (RLU): 7.00e5
- ATP luminescence, replicate 2 (RLU): 6.11e5

Sr-CII [DRSC25606]
- ATP z-score, duplicate mean: -0.201
- ATP luminescence, replicate 1 (RLU): 8.09e5
- ATP luminescence, replicate 2 (RLU): 8.42e5

CG33635 [DRSC00006]
- ATP z-score, duplicate mean: -0.141
- ATP luminescence, replicate 1 (RLU): 7.30e5
- ATP luminescence, replicate 2 (RLU): 7.24e5

blot [DRSC11328]
- ATP z-score, duplicate mean: -0.424
- ATP luminescence, replicate 1 (RLU): 6.97e5
- ATP luminescence, replicate 2 (RLU): 6.74e5

blot [DRSC26157]
- ATP z-score, duplicate mean: 0.713
- ATP luminescence, replicate 1 (RLU): 9.40e5
- ATP luminescence, replicate 2 (RLU): 9.38e5

Fas2 [DRSC17308]
- ATP z-score, duplicate mean: 0.0503
- ATP luminescence, replicate 1 (RLU): 7.40e5
- ATP luminescence, replicate 2 (RLU): 7.57e5

Fas2 [DRSC17309]
- ATP z-score, duplicate mean: -1.27
- ATP luminescence, replicate 1 (RLU): 5.16e5
- ATP luminescence, replicate 2 (RLU): 4.93e5
